The list shows a part of the results.
What was measured:
Assay in all cases: log2 fold change, soluble protein after heating vs DMSO (PISA); higher = thermal stabilisation; K562 lysate, 10 uM; active = over 0.2 and 3.5 SD of the protein, either way, in both replicates (recomputed)
ibrutinib = compound: C=CC(=O)N1CCC[C@@H](n2nc(-c3ccc(Oc4ccccc4)cc3)c3c(N)ncnc32)C1 [ibrutinib]
Method in brief: (§1)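 Pellets of K562 cells were dounce-homogenised in PBS pH 7.4 with 1 mM MgCl2, and the crude extract was held at 1 mg/mL protein for a 30 min treatment with 10 μM compound. Aliquots were heated for 3 min over 48°C-58°C and pooled before NP-40 was added to 0.5% at 4°C. The supernatant from 21,000xg for 90 min was quantified by TMTpro 16plex LC-MS/MS with channel sums equalised. Values are reported from duplicates as log-two fold change in thermal stability relative to solvent controls.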

Chains of the proteins cited; added tags and fusions are not shown. Lines headed by an entry give the natural chain unless they say otherwise; changes in a name come on top.
UniProt Q9H081: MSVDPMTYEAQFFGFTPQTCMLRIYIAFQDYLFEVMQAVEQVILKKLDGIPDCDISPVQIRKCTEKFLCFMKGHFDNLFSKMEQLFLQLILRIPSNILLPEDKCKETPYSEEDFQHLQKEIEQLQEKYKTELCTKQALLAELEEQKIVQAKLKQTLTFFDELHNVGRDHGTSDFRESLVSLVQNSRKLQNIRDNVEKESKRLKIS
UniProt Q9NV56, whole entry, looked up: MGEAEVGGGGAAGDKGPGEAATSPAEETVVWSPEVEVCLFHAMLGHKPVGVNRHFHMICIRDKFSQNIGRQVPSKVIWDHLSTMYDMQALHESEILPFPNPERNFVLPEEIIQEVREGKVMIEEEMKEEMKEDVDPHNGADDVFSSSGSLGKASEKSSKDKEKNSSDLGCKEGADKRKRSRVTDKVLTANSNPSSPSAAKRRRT
UniProt Q13064: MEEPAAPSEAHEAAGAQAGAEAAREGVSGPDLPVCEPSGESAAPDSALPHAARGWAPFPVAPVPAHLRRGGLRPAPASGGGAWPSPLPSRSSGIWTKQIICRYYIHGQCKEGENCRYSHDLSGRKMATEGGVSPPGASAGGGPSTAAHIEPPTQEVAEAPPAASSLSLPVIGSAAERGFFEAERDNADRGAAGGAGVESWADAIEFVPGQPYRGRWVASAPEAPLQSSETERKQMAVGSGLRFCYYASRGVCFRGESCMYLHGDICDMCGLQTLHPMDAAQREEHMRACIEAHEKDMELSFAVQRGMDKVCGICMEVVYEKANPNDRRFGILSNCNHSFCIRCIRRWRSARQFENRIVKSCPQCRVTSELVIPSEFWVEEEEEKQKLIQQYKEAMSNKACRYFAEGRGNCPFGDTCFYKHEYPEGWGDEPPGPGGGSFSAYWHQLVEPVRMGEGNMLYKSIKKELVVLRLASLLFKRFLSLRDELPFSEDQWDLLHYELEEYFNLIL
UniProt Q99549: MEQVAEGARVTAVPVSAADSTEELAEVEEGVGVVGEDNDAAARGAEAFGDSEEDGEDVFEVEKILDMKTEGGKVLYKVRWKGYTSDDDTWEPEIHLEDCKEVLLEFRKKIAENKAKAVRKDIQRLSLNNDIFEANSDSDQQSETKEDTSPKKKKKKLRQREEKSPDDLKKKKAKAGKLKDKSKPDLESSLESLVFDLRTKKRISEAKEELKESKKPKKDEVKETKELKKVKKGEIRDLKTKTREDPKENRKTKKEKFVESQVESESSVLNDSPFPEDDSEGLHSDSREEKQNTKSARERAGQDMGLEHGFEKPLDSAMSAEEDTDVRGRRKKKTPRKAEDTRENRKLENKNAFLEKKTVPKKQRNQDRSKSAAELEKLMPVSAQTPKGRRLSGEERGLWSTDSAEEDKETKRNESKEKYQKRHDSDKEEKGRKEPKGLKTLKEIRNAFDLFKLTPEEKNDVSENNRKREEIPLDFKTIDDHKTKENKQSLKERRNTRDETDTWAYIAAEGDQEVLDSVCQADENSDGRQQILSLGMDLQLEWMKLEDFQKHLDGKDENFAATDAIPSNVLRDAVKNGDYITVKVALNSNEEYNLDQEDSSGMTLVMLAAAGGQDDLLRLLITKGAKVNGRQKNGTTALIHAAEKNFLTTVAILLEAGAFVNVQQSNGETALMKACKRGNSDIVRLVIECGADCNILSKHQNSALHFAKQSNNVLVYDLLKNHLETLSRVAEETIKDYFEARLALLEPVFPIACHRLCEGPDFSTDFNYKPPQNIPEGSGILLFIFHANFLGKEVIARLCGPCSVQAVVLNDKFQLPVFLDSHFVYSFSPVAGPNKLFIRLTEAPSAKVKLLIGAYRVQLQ
UniProt P49959: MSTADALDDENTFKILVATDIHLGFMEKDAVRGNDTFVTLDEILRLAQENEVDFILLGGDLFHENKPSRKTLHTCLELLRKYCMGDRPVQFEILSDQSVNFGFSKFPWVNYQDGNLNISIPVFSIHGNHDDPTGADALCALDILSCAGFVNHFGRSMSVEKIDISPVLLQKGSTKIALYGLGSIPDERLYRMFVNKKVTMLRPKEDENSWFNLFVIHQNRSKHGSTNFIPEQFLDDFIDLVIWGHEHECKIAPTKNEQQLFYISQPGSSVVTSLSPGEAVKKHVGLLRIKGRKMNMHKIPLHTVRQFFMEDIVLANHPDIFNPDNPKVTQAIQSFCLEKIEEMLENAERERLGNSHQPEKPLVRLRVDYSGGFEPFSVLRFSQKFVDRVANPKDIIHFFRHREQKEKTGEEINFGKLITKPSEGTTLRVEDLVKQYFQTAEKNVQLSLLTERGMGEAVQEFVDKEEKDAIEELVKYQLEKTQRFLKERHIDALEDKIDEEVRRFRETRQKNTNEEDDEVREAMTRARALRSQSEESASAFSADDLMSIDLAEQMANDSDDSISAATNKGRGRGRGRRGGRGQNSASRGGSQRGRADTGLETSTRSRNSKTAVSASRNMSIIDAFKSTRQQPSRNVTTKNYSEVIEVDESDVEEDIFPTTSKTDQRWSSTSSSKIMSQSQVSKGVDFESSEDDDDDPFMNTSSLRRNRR
UniProt A9UHW6: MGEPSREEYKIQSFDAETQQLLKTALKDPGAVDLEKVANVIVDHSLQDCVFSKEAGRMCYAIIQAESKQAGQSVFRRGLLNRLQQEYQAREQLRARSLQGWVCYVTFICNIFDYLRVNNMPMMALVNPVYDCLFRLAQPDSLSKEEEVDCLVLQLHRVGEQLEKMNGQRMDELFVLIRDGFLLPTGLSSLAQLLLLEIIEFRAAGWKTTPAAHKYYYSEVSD
UniProt P46013: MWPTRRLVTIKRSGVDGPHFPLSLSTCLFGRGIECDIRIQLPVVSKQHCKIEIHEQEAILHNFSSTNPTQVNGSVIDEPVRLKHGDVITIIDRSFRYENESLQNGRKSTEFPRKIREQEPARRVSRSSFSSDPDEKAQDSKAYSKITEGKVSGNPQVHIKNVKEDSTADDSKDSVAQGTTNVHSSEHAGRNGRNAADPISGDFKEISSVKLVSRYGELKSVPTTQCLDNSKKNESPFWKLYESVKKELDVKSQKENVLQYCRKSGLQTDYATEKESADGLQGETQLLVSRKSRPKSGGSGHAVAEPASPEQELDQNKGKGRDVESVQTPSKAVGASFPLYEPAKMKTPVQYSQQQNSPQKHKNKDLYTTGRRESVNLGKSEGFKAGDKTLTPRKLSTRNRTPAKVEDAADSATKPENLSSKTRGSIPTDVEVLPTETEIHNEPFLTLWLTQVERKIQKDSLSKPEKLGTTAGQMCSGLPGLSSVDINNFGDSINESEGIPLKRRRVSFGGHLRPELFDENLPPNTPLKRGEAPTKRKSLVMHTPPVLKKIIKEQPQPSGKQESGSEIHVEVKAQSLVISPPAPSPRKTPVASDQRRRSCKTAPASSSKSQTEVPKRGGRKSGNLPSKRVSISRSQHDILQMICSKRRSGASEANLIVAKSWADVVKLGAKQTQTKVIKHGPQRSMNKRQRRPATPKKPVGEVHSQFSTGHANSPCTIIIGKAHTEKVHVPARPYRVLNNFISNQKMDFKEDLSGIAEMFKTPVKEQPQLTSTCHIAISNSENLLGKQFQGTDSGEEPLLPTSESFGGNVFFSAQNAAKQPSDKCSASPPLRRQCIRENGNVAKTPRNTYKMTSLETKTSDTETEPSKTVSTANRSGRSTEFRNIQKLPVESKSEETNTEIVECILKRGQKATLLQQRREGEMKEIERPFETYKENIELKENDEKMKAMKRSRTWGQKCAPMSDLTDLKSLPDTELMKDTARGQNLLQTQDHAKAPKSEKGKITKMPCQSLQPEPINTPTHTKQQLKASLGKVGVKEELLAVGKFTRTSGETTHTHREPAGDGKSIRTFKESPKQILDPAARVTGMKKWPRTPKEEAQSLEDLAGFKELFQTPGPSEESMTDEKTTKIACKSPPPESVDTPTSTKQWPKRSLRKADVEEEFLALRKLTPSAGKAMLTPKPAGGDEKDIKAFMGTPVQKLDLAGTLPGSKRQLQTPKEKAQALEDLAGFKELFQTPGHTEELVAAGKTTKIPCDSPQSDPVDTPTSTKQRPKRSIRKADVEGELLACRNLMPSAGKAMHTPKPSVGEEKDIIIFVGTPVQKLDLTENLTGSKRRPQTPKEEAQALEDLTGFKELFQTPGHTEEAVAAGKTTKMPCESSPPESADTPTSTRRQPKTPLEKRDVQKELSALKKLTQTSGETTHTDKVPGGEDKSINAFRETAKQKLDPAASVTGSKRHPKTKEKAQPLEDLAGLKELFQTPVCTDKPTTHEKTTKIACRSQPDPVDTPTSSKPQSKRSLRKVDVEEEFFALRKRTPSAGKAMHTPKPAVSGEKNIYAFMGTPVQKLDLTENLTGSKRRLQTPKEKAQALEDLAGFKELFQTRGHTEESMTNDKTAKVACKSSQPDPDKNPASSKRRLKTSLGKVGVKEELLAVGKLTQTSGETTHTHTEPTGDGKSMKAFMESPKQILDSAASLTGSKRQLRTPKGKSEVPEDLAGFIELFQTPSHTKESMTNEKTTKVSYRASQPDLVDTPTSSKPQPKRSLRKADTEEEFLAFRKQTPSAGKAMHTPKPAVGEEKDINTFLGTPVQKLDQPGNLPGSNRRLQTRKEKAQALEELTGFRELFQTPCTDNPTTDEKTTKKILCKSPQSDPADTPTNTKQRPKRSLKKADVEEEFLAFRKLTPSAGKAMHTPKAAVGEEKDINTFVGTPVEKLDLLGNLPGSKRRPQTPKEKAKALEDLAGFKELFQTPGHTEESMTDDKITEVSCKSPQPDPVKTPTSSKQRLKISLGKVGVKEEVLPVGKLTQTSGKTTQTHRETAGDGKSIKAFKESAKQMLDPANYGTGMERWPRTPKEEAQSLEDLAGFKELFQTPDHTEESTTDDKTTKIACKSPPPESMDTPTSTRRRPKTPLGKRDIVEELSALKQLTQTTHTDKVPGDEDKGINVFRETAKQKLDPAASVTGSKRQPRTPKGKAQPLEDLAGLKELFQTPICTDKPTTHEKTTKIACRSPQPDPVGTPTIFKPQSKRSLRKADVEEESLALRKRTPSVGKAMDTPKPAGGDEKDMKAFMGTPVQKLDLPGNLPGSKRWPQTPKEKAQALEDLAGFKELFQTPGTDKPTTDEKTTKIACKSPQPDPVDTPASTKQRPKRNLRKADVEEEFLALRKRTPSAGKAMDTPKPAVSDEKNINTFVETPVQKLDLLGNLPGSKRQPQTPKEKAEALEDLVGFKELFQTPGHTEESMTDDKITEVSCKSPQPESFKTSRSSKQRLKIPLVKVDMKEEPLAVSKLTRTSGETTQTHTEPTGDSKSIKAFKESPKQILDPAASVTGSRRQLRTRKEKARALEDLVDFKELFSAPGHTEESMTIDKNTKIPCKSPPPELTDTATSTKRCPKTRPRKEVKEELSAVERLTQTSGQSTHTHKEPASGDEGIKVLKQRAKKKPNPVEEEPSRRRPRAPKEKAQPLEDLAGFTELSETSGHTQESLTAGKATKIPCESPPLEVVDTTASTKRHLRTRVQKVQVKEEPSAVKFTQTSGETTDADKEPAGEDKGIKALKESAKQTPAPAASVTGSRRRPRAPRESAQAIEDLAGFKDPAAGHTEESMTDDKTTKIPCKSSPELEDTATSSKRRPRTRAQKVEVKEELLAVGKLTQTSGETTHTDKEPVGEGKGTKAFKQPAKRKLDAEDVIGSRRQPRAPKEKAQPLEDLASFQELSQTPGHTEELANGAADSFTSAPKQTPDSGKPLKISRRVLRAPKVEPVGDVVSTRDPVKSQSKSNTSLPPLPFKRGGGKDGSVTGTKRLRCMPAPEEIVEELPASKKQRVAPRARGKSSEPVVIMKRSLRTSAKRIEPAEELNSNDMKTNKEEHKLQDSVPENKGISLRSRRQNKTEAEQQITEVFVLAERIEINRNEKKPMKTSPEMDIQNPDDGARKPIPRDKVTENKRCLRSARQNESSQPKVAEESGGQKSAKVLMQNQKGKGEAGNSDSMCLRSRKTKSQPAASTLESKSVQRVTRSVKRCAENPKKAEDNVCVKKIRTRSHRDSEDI
UniProt Q8N4V1: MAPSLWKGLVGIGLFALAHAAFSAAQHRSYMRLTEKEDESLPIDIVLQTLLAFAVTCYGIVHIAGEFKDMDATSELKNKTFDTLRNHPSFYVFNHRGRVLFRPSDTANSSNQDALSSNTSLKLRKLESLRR

[1] = compound: CC(=O)c1cnc2ccc(-c3cc(Cl)c(O)c(Cl)c3)nc2c1N[C@H]1CC[C@H](CN(C)C)CC1
Method in brief: as §1

ralimetinib = compound: CC(C)(C)Cn1c(N)nc2ccc(-c3[nH]c(C(C)(C)C)nc3-c3ccc(F)cc3)nc21 [ralimetinib]
Method in brief: as §1

[2] = compound: CC(C)(O)CC(=O)NCCn1ccc2ncnc(Nc3ccc(Oc4cccc(C(F)(F)F)c4)c(Cl)c3)c21
Method in brief: as §1

[3] = compound: CC(C)C1=C2N=C(C=C(N2N=C1)NCC3=CC=CC=C3)NCCCCCCN
Method in brief: as §1

[4] = compound: CC1=C(C(CC(=O)N1)C2=CC=C(C=C2)C(F)(F)F)C(=O)NC3=C(C=C4C(=C3)C=NN4)F
Method in brief: as §1

[5] = compound: CC1=C(C2=C(C=C1)C(=O)C3=CC=CC=C3N2CCCN)C
Method in brief: as §1

[6] = compound: CC1=C(C=C(C=C1)NC(=O)C2=CC(=CC=C2)C(C)(C)C#N)NC3=CC4=C(C=C3)N=CN(C4=O)C
Method in brief: as §1

[7] = compound: CC1=C(C=C(C=C1)NC(=O)C2=CC(=CC=C2)N(C)C)NC(=O)C3=CC=C(C=C3)O
Method in brief: as §1

[8] = compound: CC1=CC=C(C=C1)SC2=C3C=C(SC3=CN=C2)C(=O)N
Method in brief: as §1

vemurafenib = compound: CCCS(=O)(=O)Nc1ccc(F)c(C(=O)c2c[nH]c3ncc(-c4ccc(Cl)cc4)cc23)c1F [vemurafenib]
Method in brief: as §1

[9] = compound: CCCS(=O)(=O)Nc1ccc(F)c(C(=O)c2c[nH]c3ncc(Cl)cc23)c1F
Method in brief: as §1

barasertib = compound: CCN(CCCOc1ccc2c(Nc3cc(CC(=O)Nc4cccc(F)c4)[nH]n3)ncnc2c1)CCOP(=O)(O)O [barasertib]
Method in brief: as §1

[10] = compound: CC[C@@H]1C(=O)N(C)c2cnc(Nc3ccc(C(=O)NC4CCN(C)CC4)cc3OC)nc2N1C1CCCC1
Method in brief: as §1

volasertib = compound: CC[C@@H]1C(=O)N(C)c2cnc(Nc3ccc(C(=O)N[C@H]4CC[C@H](N5CCN(CC6CC6)CC5)CC4)cc3OC)nc2N1C(C)C [volasertib]
Method in brief: as §1

[11] = compound: CCn1c(C(=O)N(C2CC2)C2CC2)cc2c3c(ncn3C)c(Nc3cc(C)n(C)n3)nc21
Method in brief: as §1

[12] = compound: CCn1cc(-c2ccnc3[nH]c(-c4cccc(CN(C)C)c4)cc23)c(-c2ccc(NC(=O)N(C)C)cc2)n1
Method in brief: as §1

[13] = compound: CN1CCC(CNc2ccc3ncc(-c4cccc(OC(F)(F)F)c4)n3n2)CC1
Method in brief: as §1

saracatinib = compound: CN1CCN(CCOc2cc(OC3CCOCC3)c3c(Nc4c(Cl)ccc5c4OCO5)ncnc3c2)CC1 [saracatinib]
Method in brief: as §1

sotrastaurin = compound: CN1CCN(c2nc(C3=C(c4c[nH]c5ccccc45)C(=O)NC3=O)c3ccccc3n2)CC1 [sotrastaurin]
Method in brief: as §1

Measured: log2 fold change

MIS12 (UniProt Q9H081)
inactive: ibrutinib 0.117 | [1] -0.035 | ralimetinib 0.057 | [2] -0.035 | [3] -0.026 | [4] -0.001 | [5] 0.024 | [6] 0.01 | [7] -0.001 | [8] -0.016 | vemurafenib 0.015 | [9] 0.03 | barasertib 0.144 | [10] 0.003 | volasertib 0.01 | [11] -0.013 | [12] -0.042 | [13] 0.011 | saracatinib -0.036 | sotrastaurin -0.051

MRPL23 (UniProt Q16540)
inactive: ibrutinib -0.044 | [1] -0.069 | ralimetinib -0.054 | [2] 0.017 | [3] 0.001 | [4] 0.017 | [5] -0.08 | [6] -0.051 | [7] -0.055 | [8] 0.003 | vemurafenib 0.014 | [9] 0.046 | barasertib 0.065 | [10] 0.085 | volasertib 0.015 | [11] -0.203 | [12] -0.004 | [13] -0.018 | saracatinib -0.065 | sotrastaurin -0.032

MRPL2 (UniProt Q5T653)
inactive: ibrutinib -0.001 | [1] -0.058 | ralimetinib 0.044 | [2] -0.035 | [3] -0.023 | [4] 0.012 | [5] -0.091 | [6] 0.011 | [7] 0.031 | [8] 0.037 | vemurafenib 0.126 | [9] 0.009 | barasertib 0.009 | volasertib 0 | [11] 0.02 | [12] -0.077 | [13] 0.041 | saracatinib -0.047 | sotrastaurin 0.047

MRGBP (UniProt Q9NV56)
inactive: ibrutinib 0.002 | [1] 0.023 | ralimetinib -0.037 | [2] -0.005 | [3] 0.04 | [4] 0.194 | [5] -0.079 | [6] -0.028 | [7] 0.007 | [8] -0.056 | vemurafenib -0.028 | [9] 0.035 | barasertib 0.067 | [10] -0.181 | volasertib 0.021 | [11] -0.073 | [12] -0.104 | [13] 0.079 | saracatinib -0.017 | sotrastaurin 0.003

MKRN3 (UniProt Q13064)
inactive: ibrutinib 0.016 | [1] 0.09 | ralimetinib -0.152 | [2] 0.013 | [3] -0.115 | [4] -0.054 | [5] 0.218 | [6] 0.001 | [7] 0.032 | [8] 0.05 | vemurafenib 0.017 | [9] -0.01 | barasertib 0.021 | volasertib -0.016 | [11] -0.139 | [12] 0.036 | [13] 0.011 | saracatinib -0.05 | sotrastaurin -0.024

MRPL17 (UniProt Q9NRX2)
inactive: ibrutinib 0.032 | [1] 0.014 | ralimetinib 0.025 | [2] -0.022 | [3] -0.008 | [4] 0 | [5] 0.043 | [6] -0.079 | [7] 0.04 | [8] -0.074 | vemurafenib 0.036 | [9] 0.055 | barasertib 0.054 | [10] -0.023 | volasertib -0.066 | [11] 0.045 | [12] 0.041 | [13] -0.005 | saracatinib -0.002 | sotrastaurin 0.031

MPHOSPH8 (UniProt Q99549)
inactive: ibrutinib 0.176 | [1] -0.059 | ralimetinib -0.082 | [2] -0.055 | [3] -0.212 | [5] 0.009 | [6] 0.074 | [7] 0.044 | [8] -0.051 | vemurafenib -0.135 | [9] -0.008 | barasertib 0.098 | [10] 0.16 | volasertib 0.024 | [11] 0.01 | [12] 0.073 | [13] 0.058 | saracatinib 0.048 | sotrastaurin -0.029

MRE11 isoform 3 (UniProt P49959)
inactive: ibrutinib -0.02 | [1] -0.012 | ralimetinib -0.005 | [2] -0.001 | [3] 0.007 | [4] -0.002 | [5] -0.02 | [6] 0.003 | [7] 0.021 | [8] -0.025 | vemurafenib 0.013 | [9] -0.012 | barasertib -0.006 | [10] 0.025 | volasertib 0.006 | [11] 0.005 | [12] 0.012 | [13] 0.009 | saracatinib -0.018 | sotrastaurin 0.007

MIF4GD isoform 3 (UniProt A9UHW6)
inactive: ibrutinib 0.108 | [1] -0.032 | ralimetinib -0.04 | [2] -0.014 | [3] 0.016 | [4] -0.002 | [5] -0.049 | [6] 0 | [7] -0.04 | [8] -0.004 | vemurafenib 0.016 | [9] 0.009 | barasertib 0.051 | [10] -0.019 | volasertib -0.012 | [11] 0.037 | [12] 0.028 | [13] 0.015 | saracatinib 0.02 | sotrastaurin 0.017

Two records picked at random from those above, as already listed:
MRPL17 (UniProt Q9NRX2)
inactive: ibrutinib 0.032 | [1] 0.014 | ralimetinib 0.025 | [2] -0.022 | [3] -0.008 | [4] 0 | [5] 0.043 | [6] -0.079 | [7] 0.04 | [8] -0.074 | vemurafenib 0.036 | [9] 0.055 | barasertib 0.054 | [10] -0.023 | volasertib -0.066 | [11] 0.045 | [12] 0.041 | [13] -0.005 | saracatinib -0.002 | sotrastaurin 0.031

MKRN3 (UniProt Q13064)
inactive: ibrutinib 0.016 | [1] 0.09 | ralimetinib -0.152 | [2] 0.013 | [3] -0.115 | [4] -0.054 | [5] 0.218 | [6] 0.001 | [7] 0.032 | [8] 0.05 | vemurafenib 0.017 | [9] -0.01 | barasertib 0.021 | volasertib -0.016 | [11] -0.139 | [12] 0.036 | [13] 0.011 | saracatinib -0.05 | sotrastaurin -0.024

More results.

MKI67 (UniProt P46013)
inactive: ibrutinib 0.039 | [1] -0.003 | ralimetinib 0.005 | [2] -0.005 | [3] 0.009 | [4] 0.029 | [5] -0.005 | [6] 0.009 | [7] 0.04 | [8] -0.012 | vemurafenib 0.001 | [9] 0.015 | barasertib -0.012 | [10] 0.042 | volasertib 0.006 | [11] 0.007 | [12] -0.014 | [13] 0 | saracatinib 0.015 | sotrastaurin 0.012

MMGT1 (UniProt Q8N4V1)
inactive: ibrutinib 0.003 | [1] -0.004 | ralimetinib 0.059 | [2] 0.041 | [3] -0.016 | [4] 0.003 | [5] -0.069 | [6] 0.014 | [7] -0.021 | [8] 0.013 | [9] 0.008 | barasertib 0.056 | [10] 0.059 | volasertib -0.012 | [11] 0.038 | [12] -0.071 | [13] 0.079 | saracatinib 0.035 | sotrastaurin 0.021
